# In PubChem BioAssay AID1961 (Sanford-Burnham Center for Chemical Genomics, 2009):
# Some of the results follow.
# Assay: GPR55 agonists via beta-arrestin recruitment, primary screen, imaging, U2OS cells, beta-arrestin-GFP redistribution (AID 1961);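 note: U2OS osteosarcoma cells stably expressing GPR55 and beta-arrestin-GFP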
# Conditions: measured here: cytotoxicity, cells analyzed, at 10 µM
row,SMILES,cell count
1,Cc1cc(C)cc(N(C(=O)c2ccccc2)C2CCN(C(=O)OC(C)(C)C)CC2)c1,393 cells
2,O=C(NCC1(N2CCOCC2)CCCCC1)c1cc2ccccc2o1,298 cells
3,O=C(OC1CN2CCC1CC2)C1c2ccccc2Oc2ccccc21 (centres undefined),318 cells
4,N#CC1(Nc2ccccc2)CCN(Cc2ccccc2)CC1,318 cells
5,CCOC(=O)N1CCC(Nc2ccc(OC)cc2)CC1,236 cells
6,CC(C)(C)OC(=O)N1CCC(N(C(=O)c2ccccc2)c2ccc(F)cc2)CC1,318 cells
7,COc1ccc(C(=O)NCC2(N3CCCCC3)CCCCC2)c(OC)c1OC,315 cells
8,COc1ccc(C(=O)NCC2(N3CCCCC3)CCCCC2)cc1,376 cells
9,O=C(NCC1(N2CCCCC2)CCCCC1)c1ccc(=O)[nH]c1,340 cells
10,CSc1ccccc1C(=O)NCC1(N2CCCCC2)CCCCC1,331 cells
11,Cc1ccc(OCC(C)C)c(CN(CCCl)CCCl)c1,332 cells
12,COc1cc(C(=O)NCC2(N(C)C)CCCCC2)ccc1OC(F)F,364 cells
13,CCOC(=O)N1CCC(Nc2cccc(C)c2)CC1,424 cells
14,CCOc1ccc(C)cc1CN(CCCl)CCCl,353 cells
15,CCOC(=O)N1CCC(Nc2ccc(F)cc2)CC1,346 cells
16,COc1ccc(NC2CCN(CCc3ccccc3)CC2)c(OC)c1,391 cells
17,O=C(NCC1(N2CCCCC2)CCCCC1)c1ccc(F)cc1,324 cells
18,O=C(NCC1(N2CCCCC2)CCCCC1)c1cccc(C(F)(F)F)c1,292 cells
19,O=C(NCC1(N2CCOCC2)CCCCC1)c1cc(=O)[nH]c2ccccc12,375 cells
20,COc1cc(C(=O)NCC2(N3CCCCC3)CCCCC2)ccc1OC(F)F,320 cells
21,COc1ccc(NC2CCN(C(=O)OC(C)(C)C)CC2)cc1,262 cells
22,CN1CCN(CCOC(=O)C(O)(c2ccccc2)c2ccccc2)CC1,336 cells
23,O=C(NCC1(N2CCCCC2)CCCCC1)c1ccc(OC(F)F)cc1,373 cells
24,N#CC1(Nc2ccccc2)CCN(CCc2ccccc2)CC1,350 cells
25,CCN1CCC(Nc2ccc(Cl)cc2)CC1,423 cells
26,O=C(NCC1(N2CCCCC2)CCCCC1)c1cccc([N+](=O)[O-])c1,235 cells
27,CCCOc1ccc(C(=O)NCC2(N(C)C)CCCCC2)cc1OC,383 cells

row,SMILES,cell count
1,CC(C)c1ccc(NC2CCN(C(=O)OC(C)(C)C)CC2)cc1,254 cells
2,CN(C)c1cccc(C(=O)NCC2(N3CCCCC3)CCCCC2)c1,266 cells
3,COc1ccc(CN(CCCl)CCCl)cc1Cl,408 cells
4,COc1cc(OC)c(C(=O)NCC2(N(C)C)CCCCC2)cc1OC,335 cells
5,CCOC(=O)N1CCC(Nc2ccc(C)cc2)CC1,431 cells
6,N/C(=N\O)c1c(N)no[n+]1[O-],304 cells
7,O=C(OC1CN2CCC1CC2)C1c2ccccc2C=Cc2ccccc21 (centres undefined),328 cells
8,COc1ccc(C(=O)NCC2(N3CCOCC3)CCCCC2)cc1OC,268 cells
9,CN(C)C1(CNC(=O)c2cccc(C#N)c2)CCCCC1,353 cells
10,CCCN1CCC(Nc2cc(OC)cc(OC)c2)CC1,405 cells
11,c1ccc(CN2CCC(Nc3ccccc3)CC2)cc1,357 cells
12,N#Cc1ccc(C(=O)NCC2(N3CCCCC3)CCCCC2)cc1,259 cells
13,CC(C)(C)OC(=O)N1CCC(N(C(=O)c2ccccc2)c2ccc(Cl)cc2)CC1,352 cells
14,CCN1CCC(Nc2cccc(F)c2)CC1,357 cells
15,CN(C)c1ccc(C(=O)NCC2(N3CCCCC3)CCCCC2)cc1,268 cells
16,COc1cc(OC)cc(C(=O)NCC2(N3CCCCC3)CCCCC2)c1,375 cells
17,Fc1ccccc1NC1CCN(Cc2ccccc2)CC1,348 cells
18,COc1cccc(C(=O)N(c2cc(C)cc(C)c2)C2CCN(C(=O)OC(C)(C)C)CC2)c1,361 cells
19,COc1cc(OC)cc(C(=O)NCC2(N3CCOCC3)CCCCC2)c1,253 cells
20,CCC(CO)(C(=O)OC1CN2CCC1CC2)c1ccccc1 (centres undefined),328 cells
21,CN1CCC(Nc2ccc(Cl)cc2)CC1,381 cells
22,CCCOc1ccc(C)cc1CN(CCCl)CCCl,316 cells
23,CN1CCC(Nc2ccc(F)c(Cl)c2)CC1,400 cells
24,CCOc1ncccc1C(=O)NCC1(N2CCOCC2)CCCCC1,336 cells
25,O=C(O)C1(Nc2ccccc2)CCN(Cc2ccccc2)CC1,333 cells
26,CC(C)(C)OC(=O)N1CCC(Nc2ccccc2)CC1,224 cells
27,CCCOc1ccc(C(=O)NCC2(N(C)C)CCCCC2)cc1,385 cells
